Laboratory results reported in PubChem BioAssay AID1347076 (National Center for Advancing Translational Sciences (NCATS), 2019).
Several values for one entry are separate records, joined by “and”; a condition that tells them apart may be missing. Identical values can stand only once. About 13,000 (3.2%) of roughly 400,000 compounds were called active. This list was built around the results that the source calls inconclusive (neither active nor inactive); the mix of calls is not that of the screen. The call rests on the fitted dose curve; in most records, active means well fitted cell-killing curve with a large enough effect; inconclusive means small, poorly fitted or top-dose-only effect, or effect the other way; inactive means flat fitted curve, though single readings scatter. Where the call is inconclusive, the potency comes from a doubtful curve fit.
Potency means the concentration at half of the fitted maximal effect.

Experiment: qHTS assay for MDR1-selective chemotherapeutics: Primary screen using the drug-selected MDR subline cells KB-V1; further: nearly all actives have a fitted effect of over 60% in size
Conditions: KB-V1 MDR cells viability, CellTiter-Glo, 72 h; series mostly up to 46.1 µM
In short: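 In this primary screen, KB-V1 cells overexpressing P-gp are incubated with library compounds (lowest to highest concentration) for 72 h at 37 degrees C before a luminescent ATP viability read.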
For `COc1ccccc1NC(=S)NCCSc1ccc(C)cc1`, the Potency was inconclusive: 25.9 µM [cytotoxic, single point]. In the case of `Cc1ccc(S(=O)(=O)N2CCCCC2CCNC(=O)C(=O)Nc2ccccc2F)cc1` (stereo not given), the Potency is reported as active: 5.8 µM. In the case of `COCc1cc(C)n(CC(=O)Nc2ccc3c(c2)OCO3)c(=O)c1C#N`, the Potency is reported as inconclusive: 20.6 µM [rising, single point]. For `CN(C(=O)COC(=O)Cc1c[nH]c2ccccc12)c1c(N)n(Cc2ccccc2)c(=O)[nH]c1=O`, the Potency was inconclusive: 18.4 µM [rising, partial curve]. In the case of `O=C(CSc1ccc(-c2ccco2)nn1)NC1CCCC1`, the Potency is reported as inconclusive: 18.4 µM [cytotoxic, partial curve, poor fit]. For `CCOC(=O)CCc1c(C(=O)OCC)[nH]c(CC)c1C(=O)OCc1ccccc1`, the Potency was inconclusive: 20.6 µM [cytotoxic, single point]. In the case of `COc1ccc(CN(C(=O)c2nsc(Cl)c2Cl)C(C(=O)NC2CCCC2)c2ccc(C)cc2)cc1` (stereo not given), the Potency is reported as inconclusive: 14.6 µM [cytotoxic, partial curve]. In the case of `Cc1cccc(C(C)C)c1NC(=O)C1CN(S(=O)(=O)c2ccccc2)CCN1S(=O)(=O)c1ccccc1` (stereo not given), the Potency is reported as active: 4.11 µM. In the case of `O=C(O)C1=C[C@@H](c2ccc(C(F)(F)F)cc2)C[C@@H](OCCCCO)O1`, the Potency is reported as “inactive”. For `O=S(=O)(O)c1cc(O)c2c(O)c(N=Nc3cc(Cl)ccc3O)c(S(=O)(=O)O)cc2c1`, the Potency was inconclusive: 23.1 µM [cytotoxic, single point]. In the case of `O=[N+]([O-])c1ccc(N=Nc2ccc(O)c3ccccc23)cc1`, the Potency is reported as active: 14.6 µM. For `O=C(NCCc1ccc(F)cc1)C(=O)NCC1CCCN1S(=O)(=O)c1cccs1` (stereo not given), the Potency was inconclusive: 29.1 µM [cytotoxic, single point]. With `COc1ccc(C(C(=O)NCc2ccccc2)N(Cc2ccc3c(c2)OCO3)C(=O)c2cnccn2)cc1` (stereo not given) the Potency was inconclusive: 5.8 µM [cytotoxic, partial curve, poor fit]. With `COC(=O)C1(C(=O)OC)C[C@H](c2ccccc2)N(Cc2ccccc2OC)[C@@H]1c1ccccc1` the Potency was inconclusive: 11.6 µM [cytotoxic, partial curve]. For `c1ccc(-c2nc(-n3ccnc3)nc(-n3ccnc3)n2)cc1`, the Potency was inconclusive: 15.8 µM [cytotoxic, single point]. With `CC1CCN(C(=S)c2cn(Cc3ccc(F)cc3)c3ccccc23)CC1` the Potency was inconclusive: 20.6 µM [cytotoxic, single point]. In the case of `CCCCNc1c(-c2ccc(SC3CCCCC3)cc2)nc2ccccn12`, the Potency is reported as active: 20.6 µM and inconclusive: 18.4 µM [cytotoxic, partial curve]. For `C#CCN(C[C@@H]1[C@@H](OC(=O)NCc2ccco2)[C@@H](OC(=O)NCc2ccco2)Cn2c(=O)ccc(=O)n21)S(=O)(=O)c1ccc(C)cc1`, the Potency was “inactive”. With `CCCCC1(C)Cc2ccccc2C(=S)N1` (stereo not given) the Potency was inconclusive: 18.4 µM [cytotoxic, single point]. For `COc1ccc(OC)c(CN2CCN(C(=O)c3cc(S(=O)(=O)N4CCOCC4)ccc3C)CC2)c1`, the Potency was inconclusive: 18.4 µM [rising, single point]. With `CCOC(=O)c1c(NC(=O)c2ccccc2Cl)sc2c1CCc1ccccc1-2` the Potency was inconclusive: 25.9 µM [cytotoxic, single point]. For `Cc1ccc(OCCNC(=O)Cc2ccc(S(=O)(=O)N3CCOCC3)s2)cc1`, the Potency was inconclusive: 18.4 µM [cytotoxic, single point]. With `Cc1ccc(N2CCN(S(=O)(=O)c3ccc4c(c3)n(C)c(=O)c(=O)n4C)CC2C)cc1` (stereo not given) the Potency was inconclusive: 1.64 µM [cytotoxic, full curve]. With `CC(=O)c1sc(Nc2ccc3c(c2)OCO3)nc1C` the Potency was inconclusive: 29.1 µM [cytotoxic, partial curve, poor fit]. In the case of `COC(=O)c1[nH]c(C)c(/C(O)=C2\C(=O)C(=O)N(CCN3CCOCC3)C2c2ccc(C)o2)c1C` (stereo not given), the Potency is reported as inconclusive: 11.6 µM [rising, partial curve, poor fit]. With `COc1ccc(C2c3c(-c4ccccc4O)n[nH]c3C(=O)N2Cc2ccco2)cc1OC` (stereo not given) the Potency was “inactive”. With `C#CCSc1nc2sc3c(c2c(=O)n1-c1cccc(OC)c1)CCN(C(C)=O)C3` the Potency was “inactive”. For `Cc1ccc(S(=O)(=O)Nc2ccc(-c3ccc(N4CCCCCC4)nn3)cc2)cc1C`, the Potency was “inactive”. For `O=C(N/N=C/c1cn(Cc2ccccc2)c2ccccc12)c1ccncc1`, the Potency was inconclusive: 29.1 µM [cytotoxic, single point]. For `COc1ccc(C(=O)N(CCc2ccccc2)Cc2ccccc2)c(OC)n1`, the Potency was active: 8.2 µM. For `CC[C@]12c3[nH]c4ccc(OC)cc4c3CCN1C(=O)C(CC(=O)NC(C)(C)C)C[C@@H]2C(=O)N1CCN(C(=O)c2ccco2)CC1` (stereo not given in full), the Potency was “inactive”. With `O=C(CSc1oc(-c2ccco2)nc1S(=O)(=O)c1ccc(Cl)cc1)NCC1CCCO1` (stereo not given) the Potency was inconclusive: 14.6 µM [cytotoxic, partial curve]. With `CC(C)NC(=S)N/N=C/C1=CCC2CC1C2(C)C` (stereo not given) the Potency was inconclusive: 23.1 µM [cytotoxic, partial curve]. With `O=[n+]1c2c(n([O-])c3cc(F)c(N4CCCC4)cc31)CCC2` the Potency was inconclusive: 13 µM [cytotoxic, partial curve]. In the case of `Cc1c(NC(=S)NC(NC(=O)C(C)C)C(Cl)(Cl)Cl)c(=O)n(-c2ccccc2)n1C` (stereo not given), the Potency is reported as “inactive”. For `Nc1c(Cl)c(Cl)nc(C(=O)OCC(=O)N2CCCC2=O)c1Cl`, the Potency was inconclusive: 29.1 µM [rising, single point]. For `COc1cc(CNC2CCCC2)cc(Cl)c1OCc1ccc(F)cc1`, the Potency was inconclusive: 13 µM [cytotoxic, partial curve]. With `CCn1c(/C=C/c2ccc([N+](=O)[O-])o2)nc2ccccc2c1=O` the Potency was active: 5.17 µM. In the case of `COc1ccc(Br)c(Cn2c(C)c(C(=O)NCCC#N)sc2=O)c1`, the Potency is reported as “inactive”. With `CCc1nn2c(-c3ccco3)ccnc2c1-c1ccc(F)cc1` the Potency was inconclusive: 6.51 µM [rising, partial curve].
